Experimental data taken from the supplement of paper PMC10849652.
The list shows a part of the results.

Sequences of proteins named here, by UniProt entry; tags and fusion partners are left off. A change or cut given only in a name is not applied to a line headed by its entry.
UniProt Q8N5Y8: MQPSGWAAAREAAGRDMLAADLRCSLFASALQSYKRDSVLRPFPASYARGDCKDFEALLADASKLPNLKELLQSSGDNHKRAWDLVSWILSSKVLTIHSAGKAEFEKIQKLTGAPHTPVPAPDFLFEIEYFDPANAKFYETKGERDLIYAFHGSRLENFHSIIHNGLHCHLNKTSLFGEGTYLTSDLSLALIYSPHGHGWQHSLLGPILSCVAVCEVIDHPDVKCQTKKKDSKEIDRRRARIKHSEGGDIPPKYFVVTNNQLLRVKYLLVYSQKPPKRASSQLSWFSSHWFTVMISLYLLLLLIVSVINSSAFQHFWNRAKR
UniProt O95453: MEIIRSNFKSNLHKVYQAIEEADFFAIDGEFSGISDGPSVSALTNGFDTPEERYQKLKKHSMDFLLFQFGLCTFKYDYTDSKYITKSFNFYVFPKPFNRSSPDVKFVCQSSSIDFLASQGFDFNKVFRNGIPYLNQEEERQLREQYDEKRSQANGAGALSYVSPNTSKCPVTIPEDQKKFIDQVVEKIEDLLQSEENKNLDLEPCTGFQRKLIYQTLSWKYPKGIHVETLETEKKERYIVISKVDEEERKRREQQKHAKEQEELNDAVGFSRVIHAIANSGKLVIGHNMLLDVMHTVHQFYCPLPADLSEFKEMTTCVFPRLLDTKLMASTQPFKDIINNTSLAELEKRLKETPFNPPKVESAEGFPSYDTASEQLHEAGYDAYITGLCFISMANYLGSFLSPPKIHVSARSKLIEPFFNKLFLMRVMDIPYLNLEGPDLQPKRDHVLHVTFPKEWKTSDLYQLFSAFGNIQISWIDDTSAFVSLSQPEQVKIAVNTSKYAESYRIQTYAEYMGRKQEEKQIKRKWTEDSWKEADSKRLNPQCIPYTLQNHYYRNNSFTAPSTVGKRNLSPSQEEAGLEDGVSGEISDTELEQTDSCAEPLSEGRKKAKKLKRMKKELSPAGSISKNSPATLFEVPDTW
UniProt P28328: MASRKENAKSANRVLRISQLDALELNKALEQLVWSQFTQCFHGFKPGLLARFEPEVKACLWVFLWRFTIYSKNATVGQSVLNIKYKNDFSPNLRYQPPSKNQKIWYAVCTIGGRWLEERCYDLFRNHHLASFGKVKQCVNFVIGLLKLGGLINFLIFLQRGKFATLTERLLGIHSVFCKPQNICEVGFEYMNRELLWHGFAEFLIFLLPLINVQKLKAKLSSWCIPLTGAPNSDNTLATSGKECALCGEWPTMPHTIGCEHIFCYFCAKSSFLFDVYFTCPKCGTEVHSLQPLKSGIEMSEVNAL
UniProt O60658: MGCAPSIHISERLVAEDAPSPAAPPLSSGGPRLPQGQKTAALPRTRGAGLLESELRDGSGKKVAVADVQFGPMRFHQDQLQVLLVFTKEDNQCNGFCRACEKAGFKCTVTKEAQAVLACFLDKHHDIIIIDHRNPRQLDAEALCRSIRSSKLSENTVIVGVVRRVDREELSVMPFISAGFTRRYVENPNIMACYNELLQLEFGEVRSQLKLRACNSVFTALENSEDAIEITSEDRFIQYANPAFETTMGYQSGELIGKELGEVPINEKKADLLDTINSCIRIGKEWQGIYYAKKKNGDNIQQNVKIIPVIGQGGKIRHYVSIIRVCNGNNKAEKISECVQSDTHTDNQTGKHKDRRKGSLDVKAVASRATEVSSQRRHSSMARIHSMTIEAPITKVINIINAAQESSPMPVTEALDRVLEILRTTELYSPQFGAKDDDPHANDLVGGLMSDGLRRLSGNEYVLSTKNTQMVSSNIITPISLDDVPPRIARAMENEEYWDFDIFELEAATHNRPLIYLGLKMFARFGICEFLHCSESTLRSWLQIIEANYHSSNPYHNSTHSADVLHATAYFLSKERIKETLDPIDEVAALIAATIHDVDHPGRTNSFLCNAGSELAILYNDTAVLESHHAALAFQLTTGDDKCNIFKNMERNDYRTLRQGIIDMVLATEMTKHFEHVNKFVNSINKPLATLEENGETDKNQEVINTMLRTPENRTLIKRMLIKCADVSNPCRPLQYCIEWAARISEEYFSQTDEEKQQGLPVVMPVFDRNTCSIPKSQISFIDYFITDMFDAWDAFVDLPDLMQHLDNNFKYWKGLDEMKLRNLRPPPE
UniProt Q86YH6: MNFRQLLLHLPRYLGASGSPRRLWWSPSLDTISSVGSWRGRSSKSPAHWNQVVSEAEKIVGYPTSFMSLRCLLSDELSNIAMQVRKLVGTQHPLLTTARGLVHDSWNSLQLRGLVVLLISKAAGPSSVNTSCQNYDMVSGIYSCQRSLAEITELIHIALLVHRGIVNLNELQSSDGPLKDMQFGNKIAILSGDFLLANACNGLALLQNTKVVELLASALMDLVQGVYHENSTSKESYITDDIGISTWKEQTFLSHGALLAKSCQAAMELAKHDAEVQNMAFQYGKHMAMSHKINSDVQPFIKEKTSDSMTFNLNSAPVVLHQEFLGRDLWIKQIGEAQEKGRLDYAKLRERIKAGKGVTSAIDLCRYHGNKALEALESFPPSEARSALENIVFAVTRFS
UniProt Q9H792: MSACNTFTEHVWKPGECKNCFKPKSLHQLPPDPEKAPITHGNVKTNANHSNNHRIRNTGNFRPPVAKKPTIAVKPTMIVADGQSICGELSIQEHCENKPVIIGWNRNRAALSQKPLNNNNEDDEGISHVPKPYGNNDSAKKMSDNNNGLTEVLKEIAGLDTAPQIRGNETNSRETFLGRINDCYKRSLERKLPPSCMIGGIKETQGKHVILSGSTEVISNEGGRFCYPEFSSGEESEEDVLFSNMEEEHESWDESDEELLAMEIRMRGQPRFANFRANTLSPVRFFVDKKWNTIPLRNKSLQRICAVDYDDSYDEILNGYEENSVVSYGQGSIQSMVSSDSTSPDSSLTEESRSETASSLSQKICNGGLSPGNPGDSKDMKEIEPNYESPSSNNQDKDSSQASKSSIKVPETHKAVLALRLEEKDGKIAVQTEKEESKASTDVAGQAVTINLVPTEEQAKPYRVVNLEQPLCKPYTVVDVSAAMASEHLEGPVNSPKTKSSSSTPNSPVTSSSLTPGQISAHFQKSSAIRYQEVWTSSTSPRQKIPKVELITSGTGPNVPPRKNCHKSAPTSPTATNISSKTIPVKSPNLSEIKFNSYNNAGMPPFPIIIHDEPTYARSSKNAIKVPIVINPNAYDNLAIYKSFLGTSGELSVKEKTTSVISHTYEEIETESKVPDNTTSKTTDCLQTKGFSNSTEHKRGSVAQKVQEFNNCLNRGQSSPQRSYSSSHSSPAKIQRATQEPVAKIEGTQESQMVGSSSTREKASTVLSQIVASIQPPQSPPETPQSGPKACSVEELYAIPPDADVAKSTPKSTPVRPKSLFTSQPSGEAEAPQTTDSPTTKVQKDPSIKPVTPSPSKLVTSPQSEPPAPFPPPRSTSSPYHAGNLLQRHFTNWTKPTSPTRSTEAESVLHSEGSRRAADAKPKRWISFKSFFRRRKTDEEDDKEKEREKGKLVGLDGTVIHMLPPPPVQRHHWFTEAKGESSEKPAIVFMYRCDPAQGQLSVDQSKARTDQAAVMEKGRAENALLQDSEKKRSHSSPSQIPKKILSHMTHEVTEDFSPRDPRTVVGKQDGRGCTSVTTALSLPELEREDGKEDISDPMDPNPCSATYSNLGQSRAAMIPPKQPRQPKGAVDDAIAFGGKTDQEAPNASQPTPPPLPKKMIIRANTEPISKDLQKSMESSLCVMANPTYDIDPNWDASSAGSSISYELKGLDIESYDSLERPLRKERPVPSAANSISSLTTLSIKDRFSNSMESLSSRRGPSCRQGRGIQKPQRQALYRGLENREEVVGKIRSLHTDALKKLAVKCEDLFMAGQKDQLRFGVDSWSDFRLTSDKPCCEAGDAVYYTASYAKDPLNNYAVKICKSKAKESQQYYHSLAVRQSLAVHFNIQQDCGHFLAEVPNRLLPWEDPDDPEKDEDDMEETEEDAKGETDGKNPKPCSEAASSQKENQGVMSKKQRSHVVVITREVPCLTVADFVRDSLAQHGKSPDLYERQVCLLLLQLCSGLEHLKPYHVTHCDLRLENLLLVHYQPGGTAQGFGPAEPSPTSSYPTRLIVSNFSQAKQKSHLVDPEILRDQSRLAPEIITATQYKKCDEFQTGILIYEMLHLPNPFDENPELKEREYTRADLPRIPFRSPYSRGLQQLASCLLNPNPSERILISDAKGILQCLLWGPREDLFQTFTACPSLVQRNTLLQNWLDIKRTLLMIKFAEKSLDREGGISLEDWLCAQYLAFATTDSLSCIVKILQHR
UniProt Q15118, whole entry, looked up: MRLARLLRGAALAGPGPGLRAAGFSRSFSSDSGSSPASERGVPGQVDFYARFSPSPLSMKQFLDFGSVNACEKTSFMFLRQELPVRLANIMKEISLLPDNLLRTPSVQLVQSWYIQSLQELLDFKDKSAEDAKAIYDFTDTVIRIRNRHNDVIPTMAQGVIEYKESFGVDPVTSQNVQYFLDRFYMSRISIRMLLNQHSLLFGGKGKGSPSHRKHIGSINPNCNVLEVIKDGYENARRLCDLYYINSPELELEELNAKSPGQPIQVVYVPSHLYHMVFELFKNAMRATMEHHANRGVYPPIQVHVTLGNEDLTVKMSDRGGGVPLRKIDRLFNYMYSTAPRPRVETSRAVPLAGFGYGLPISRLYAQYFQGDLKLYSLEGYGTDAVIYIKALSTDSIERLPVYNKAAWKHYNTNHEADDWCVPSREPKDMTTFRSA
UniProt Q9BUL8: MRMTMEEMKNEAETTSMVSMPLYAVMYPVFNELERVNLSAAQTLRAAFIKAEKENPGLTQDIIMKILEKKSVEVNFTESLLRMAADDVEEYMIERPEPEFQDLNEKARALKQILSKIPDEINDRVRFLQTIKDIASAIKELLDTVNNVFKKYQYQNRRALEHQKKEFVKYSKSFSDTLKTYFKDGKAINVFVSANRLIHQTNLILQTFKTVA

Tests used:
Test in all cases: log2 fold change, soluble protein after heating vs DMSO (PISA); higher = thermal stabilisation; K562 lysate, 10 uM; active = over 0.2 and 3.5 SD of the protein, either way, in both replicates (recomputed)
erlotinib = compound: C#Cc1cccc(Nc2ncnc3cc(OCCOC)c(OCCOC)cc23)c1 [erlotinib]
How it was run: (§1)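 Values give the log-two fold change in thermal stability against solvent controls, from duplicates. Crude K562 extract at 1 mg/mL protein, made by dounce homogenisation in PBS pH 7.4 with 1 mM MgCl2, was treated with 10 μM compound for 30 min. After 3 min heating across 48°C-58°C, aliquots were pooled, adjusted to 0.5% NP-40 at 4°C and centrifuged at 21,000xg for 90 min. The supernatant was measured by TMTpro 16plex LC-MS/MS with channel sums equalised.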

[1] = compound: C/C(=N\NC(=O)C1=CC(=CC=C1)S(=O)(=O)N2CCOCC2)/C3=C(C=CC(=C3)Cl)O
How it was run: as §1

[2] = compound: C1=CC(=CC=C1C2=NC3=C(N2)C=C(C=C3)C(=O)N)OC4=CC=C(C=C4)Cl
How it was run: as §1

[3] = compound: C1=CC2=C(C=CC(=C2)/C=C\3/C(=O)NC(=NCC4=CC=CS4)S3)N=C1
How it was run: as §1

[4] = compound: C1=CC2=NC=CN=C2C=C1/C=C/3\C(=O)NC(=O)S3
How it was run: as §1

[5] = compound: C1=CC=C(C=C1)C2=NC(=C(N2)C3=CC=NC=C3)C4=CC(=C(C=C4)Cl)O
How it was run: as §1

[6] = compound: C1=CC=C2C(=C1)C3=NNC4=CC=CC(=C43)C2=O
How it was run: as §1

[7] = compound: C1CCN(C1)C(=O)NC2=CC=CC(=C2)NC3=NC=C(C(=N3)NCCC4=CN=CN4)Br
How it was run: as §1

[8] = compound: C1CN(CCC1(CC2=CC=C(C=C2)Cl)N)C3=NC=NC4=C3C=CN4
How it was run: as §1

IRAK-1-4 Inhibitor I = compound: C1COCCN1CCN2C3=CC=CC=C3N=C2NC(=O)C4=CC(=CC=C4)[N+](=O)[O-] [IRAK-1-4 Inhibitor I]
How it was run: as §1

PARP16 isoform 3 (UniProt Q8N5Y8)
log2 fold change (erlotinib): inactive: -0.045 | log2 fold change [1]: inactive: 0.066 | log2 fold change [2]: inactive: -0.011 | log2 fold change [3]: inactive: 0.097 | log2 fold change [4]: inactive: 0.039 | log2 fold change [5]: inactive: -0.015 | log2 fold change [6]: inactive: -0.125 | log2 fold change [7]: inactive: -0.089 | log2 fold change [8]: inactive: 0.05 | log2 fold change (IRAK-1-4 Inhibitor I): inactive: 0.057

PARN (UniProt O95453)
log2 fold change (erlotinib): inactive: -0.02 | log2 fold change [1]: inactive: 0.055 | log2 fold change [2]: inactive: 0.008 | log2 fold change [3]: inactive: 0.048 | log2 fold change [4]: inactive: -0.013 | log2 fold change [5]: inactive: -0.012 | log2 fold change [6]: inactive: 0.005 | log2 fold change [7]: inactive: -0.004 | log2 fold change [8]: inactive: 0.032 | log2 fold change (IRAK-1-4 Inhibitor I): inactive: -0.006

PEX2 (UniProt P28328)
log2 fold change (erlotinib): inactive: 0.106 | log2 fold change [1]: active: -0.731 | log2 fold change [2]: inactive: 0.068 | log2 fold change [3]: inactive: 0.048 | log2 fold change [4]: inactive: -0.128 | log2 fold change [5]: inactive: 0.082 | log2 fold change [6]: inactive: -0.119 | log2 fold change (IRAK-1-4 Inhibitor I): inactive: -0.04

PDE8A (UniProt O60658)
log2 fold change (erlotinib): inactive: 0.155 | log2 fold change [1]: inactive: -0.201 | log2 fold change [2]: inactive: 0.042 | log2 fold change [3]: inactive: 0.05 | log2 fold change [4]: inactive: -0.069 | log2 fold change [6]: inactive: 0.263

PDSS2 (UniProt Q86YH6)
log2 fold change (erlotinib): inactive: -0.008 | log2 fold change [1]: inactive: 0.19 | log2 fold change [2]: inactive: 0.012 | log2 fold change [3]: inactive: 0.014 | log2 fold change [4]: inactive: -0.043 | log2 fold change [5]: inactive: -0.026 | log2 fold change [6]: inactive: 0.114 | log2 fold change (IRAK-1-4 Inhibitor I): inactive: 0.082

PCLO (UniProt Q9Y6V0)
log2 fold change (erlotinib): inactive: 0.103 | log2 fold change [1]: inactive: -0.014 | log2 fold change [2]: inactive: 0.128 | log2 fold change [3]: inactive: -0.038 | log2 fold change [4]: inactive: -0.026 | log2 fold change [5]: inactive: 0.035 | log2 fold change [6]: inactive: -0.125 | log2 fold change [7]: inactive: -0.063 | log2 fold change [8]: inactive: 0.107 | log2 fold change (IRAK-1-4 Inhibitor I): inactive: 0.083

PEAK1 (UniProt Q9H792)
log2 fold change (erlotinib): inactive: 0.13 | log2 fold change [1]: inactive: 0.028 | log2 fold change [2]: inactive: -0.03 | log2 fold change [3]: inactive: 0.237 | log2 fold change [4]: inactive: -0.02 | log2 fold change [5]: inactive: 0.045 | log2 fold change [6]: inactive: -0.22 | log2 fold change (IRAK-1-4 Inhibitor I): inactive: -0.061

PDK1 (UniProt Q15118)
log2 fold change (erlotinib): inactive: -0.06 | log2 fold change [1]: inactive: 0.053 | log2 fold change [2]: inactive: -0.111 | log2 fold change [3]: inactive: -0.012 | log2 fold change [4]: inactive: 0.04 | log2 fold change [5]: inactive: -0.022 | log2 fold change [6]: inactive: 0.136 | log2 fold change [7]: inactive: 0.478 | log2 fold change [8]: inactive: 0.276 | log2 fold change (IRAK-1-4 Inhibitor I): inactive: 0.008

PDCD10 (UniProt Q9BUL8)
log2 fold change (erlotinib): inactive: -0.029 | log2 fold change [1]: inactive: -0.001 | log2 fold change [2]: inactive: -0.009 | log2 fold change [3]: inactive: -0.049 | log2 fold change [4]: inactive: -0.028 | log2 fold change [5]: inactive: -0.007 | log2 fold change [6]: inactive: 0.087 | log2 fold change [7]: inactive: 0.035 | log2 fold change [8]: inactive: -0.025 | log2 fold change (IRAK-1-4 Inhibitor I): inactive: -0.012
